Screen size: about 140,000 compounds; about 4,300 (3.1%) were called active. Inconclusive results, whose numbers are uncertain, are shown with a selection of clear calls.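 How the source made its calls: active means readout at or below -70, meaning at least 70% loss of cells showing the perinucleolar compartment, a nuclear body marking cancer cells; inconclusive means readout between -30 and a set limit; inactive means the rest.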
test: High Content Assay for Compounds that inhibit the Assembly of the Perinucleolar Compartment; conditions: PC3M PTB-GFP, PNC prevalence imaging, 16 h; at 10 µM; hits give low values;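 further: plate controls were DMSO wells for no effect and camptothecin positive control wells for full effect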
Procedure, shortened: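 Read-out is percentage of cells bearing a perinucleolar compartment, from automated 20x imaging of fixed, Hoechst-stained PC3M PTB-GFP cells. Cells were seeded 4 h, then exposed 16 h to compound (23 nl of library stock) in duplicate plates.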

Row | Compound | activity change (PNC), negative = inhibition
1 | O=C(N/N=C/c1ccc([N+](=O)[O-])cc1)c1ccc2nc[nH]c2c1 | active: -88.4%
2 | O=C(CN1C(=O)NC2(CCCc3ccccc32)C1=O)NCc1ccco1 (stereo not given) | inconclusive: -40.1%
3 | O=C(NN1C(=O)c2ccccc2NC1c1ccccn1)c1ccccc1 (stereo not given) | inconclusive: -37.2%
4 | CN1/C(=C/C=N/n2cnnc2)C(C)(C)c2ccccc21 | inconclusive: -41.3%
5 | CN(C)S(=O)(=O)c1ccc2[nH]cc(/C=C/c3nc4ccccc4c(=O)n3-c3ccccc3)c2c1 | active: -80.1%
6 | CCOC(=O)CSc1nc2ccccc2c(=O)n1C1CCCC1 | inconclusive: -65%
7 | CC(C)CCn1c(CN2CCN(C(=O)c3ccco3)CC2)nc2c1c(=O)n(C)c(=O)n2C | inactive: -12.3%
8 | COc1cc2c(cc1OC)CN(C(=O)C(C)(C)C)CC2 | active: -106%
9 | CC1=C(C#N)C(c2cn(-c3ccccc3)nc2-c2cccs2)C(C#N)=C(C)N1 | active: -95.2%
10 | CC(C)OC(=O)c1ccc(COC(=O)c2cccc(-c3nnc(-c4ccccc4)o3)c2)cc1 | inconclusive: -35.6%
11 | COc1ccc(CCC(C)Nc2cccc(F)c2)cc1 (stereo not given) | inactive: -6.4%
12 | CSc1ccc(C(=S)N2CCN(C(c3ccccc3)c3ccccc3)CC2)cc1 | inconclusive: -64.8%
13 | CCOC(=O)c1c(C2CC2)csc1NC(=O)COC(=O)c1cnc(Cl)c(Cl)c1 | inconclusive: -52.7%
14 | O=C1CC(C(=O)N2CCOCC2)C2(CCCC2)O1 (stereo not given) | inconclusive: -46.6%
15 | CCC(=O)Nc1cccc(NC(=S)NC(=O)c2cccc(C)c2)c1 | inactive: 18.6%
16 | COc1ccc(N2CCN(C(=O)c3ccc(NS(=O)(=O)c4cccc(F)c4)cc3)CC2)cc1 | inactive: -28.4%
17 | COc1ccccc1N(C(=O)CNS(=O)(=O)c1ccccc1)C(C(=O)NCc1ccco1)C(C)C (stereo not given) | inconclusive: -40.6%
18 | O=C(NC1CCN(Cc2ccccc2)CC1)c1cccc(S(=O)(=O)Nc2cc(C(F)(F)F)ccc2Cl)c1 | inconclusive: -33.1%
19 | COc1ccc2c(CC(=O)OCC(=O)N3CCc4ccccc43)coc2c1 | inconclusive: -38.5%
20 | COc1c2occc2cc2ccc(=O)oc12 | inactive: 54.3%
21 | O=C(CCS(=O)(=O)Cc1ccccc1)N1CCc2ccccc2C1 | inactive: 7.25%
22 | O=C(NC(=S)N1CCOCC1)C12CCC3CC(CC(C3)C1)C2 | inconclusive: -34.6%
23 | Cc1oc(-c2cc(Cl)cc(Cl)c2)cc1C(=O)NCCc1ccccc1 | inconclusive: -48.8%

Structures listed so far that have fluorine (three):
Row | Compound | activity change (PNC), negative = inhibition
11 | COc1ccc(CCC(C)Nc2cccc(F)c2)cc1 (stereo not given) | inactive: -6.4%
16 | COc1ccc(N2CCN(C(=O)c3ccc(NS(=O)(=O)c4cccc(F)c4)cc3)CC2)cc1 | inactive: -28.4%
18 | O=C(NC1CCN(Cc2ccccc2)CC1)c1cccc(S(=O)(=O)Nc2cc(C(F)(F)F)ccc2Cl)c1 | inconclusive: -33.1%

Going on with the list.

Row | Compound | activity change (PNC), negative = inhibition
24 | O=C(CSC1=NC(=O)C(c2ccccc2)C(=O)N1)Nc1ccccc1Cl (stereo not given) | inconclusive: -36.7%
25 | O=C(CN(Cc1ccc(F)cc1)C(=O)Cn1nnc2ccccc21)NCC1CCCO1 (stereo not given) | inactive: 29.6%
26 | CCOC(=O)c1cnn(-c2cc(C)nc3c(-c4ccccc4)c(C)nn23)c1N | inconclusive: -41.8%
27 | CCCCNC(=S)Nc1ccc2cn[nH]c2c1 | active: -83.7%
28 | c1ccc(-c2csc3ncnc(NCC4COc5ccccc5O4)c23)cc1 (stereo not given) | inactive: -22.7%
29 | COc1ccc(-c2nc(-c3ccccc3)c(-c3cc([N+](=O)[O-])ccc3C)[nH]2)cc1O | inconclusive: -41.6%
30 | COc1ccc(OCCNc2cc(N3CCCCC3)ccc2[N+](=O)[O-])cc1 | inconclusive: -30%
31 | CN(C)/C=C1\C(=O)N(c2ccc([N+](=O)[O-])cc2)N=C1c1ccccc1 | inactive: 1.25%
32 | Cc1cc(Cl)c(OCCCn2cncn2)c(Br)c1 | inconclusive: -40.6%
33 | CC1CCC(N2CCN(S(C)(=O)=O)CC2)CC1 (stereo not given) | inconclusive: -36.8%
34 | NC(=O)CC[C@H](NC(=O)OCc1ccccc1)C(=O)OCc1ccc(Cl)cc1 | active: -92.9%
35 | CCOC(=O)c1cccc(NC(=O)c2cnccn2)c1 | inconclusive: -39.1%
36 | CCC1(C)OC(=O)NN(c2ccc(C)cc2)C1(C)O (stereo not given) | inactive: 47.2%
37 | CCc1cccc(OCCCn2ccnc2)c1 | inconclusive: -38.6%
38 | O=C(Nc1ccc(F)cc1F)c1ccc(COc2c(F)c(F)cc(F)c2F)o1 | inconclusive: -58.4%
39 | Cc1cc(C(F)F)n2ncc(C(=O)NCc3ccccc3C(F)(F)F)c2n1 | inconclusive: -50.9%
40 | Cc1ccc(OCCNC(=O)c2ccco2)cc1C | inactive: 18.7%
41 | Cc1cccc2sc(NC(=O)CN(C)S(=O)(=O)c3ccc(Br)s3)nc12 | inconclusive: -44.3%
42 | Cc1ccc(Oc2ccc(NC(=O)CSc3n[nH]c(N)n3)cc2)cc1 | inactive: 12.2%
43 | Cc1nc2sc3c(NCc4ccco4)ncnc3c2c2c1COC(C)(C)C2 | inconclusive: -41.4%
44 | CN1CCN(C2=Nc3ccccc3Oc3ccc(Cl)cc32)CC1 | inconclusive: -33.8%
45 | C=CCn1c(SCC(=O)c2ccc(OC)cc2)nnc1-c1cc2cccc(OC)c2o1 | active: -123%
46 | O=C1CCCCCN1C(=O)c1ccc(C(=O)N2CCCCCC2=O)cc1 | inconclusive: -53.9%

Row | Compound | activity change (PNC), negative = inhibition
47 | Cc1sc2nc(C(C)C)oc(=O)c2c1C | inconclusive: -45.2%
48 | CCS(=O)CCSc1nc2ccccc2s1 (stereo not given) | inactive: 97.4%
49 | CCOc1ccc(NC(=O)c2ccc(S(=O)(=O)N(C)C)cc2)cc1 | inconclusive: -62.9%
50 | CC(CCc1ccccc1)C(=O)NO (stereo not given) | inconclusive: -32%
51 | CCc1cccc(NC(=O)CSCc2cc(=O)[nH][nH]2)c1 | inconclusive: -45.5%
52 | Cc1cccc(-c2nc(CSc3nc4c(c(=O)[nH]3)CCC4)c(C)o2)c1 | inactive: 56%
53 | CC1=C(C)/C(=N/OC(=O)c2cccc([N+](=O)[O-])c2)C=CC1=O | inconclusive: -31%
54 | COC(=O)c1nc(NC(=O)c2ccc(Br)cc2)n[nH]1 | inconclusive: -34.9%
55 | COC(=O)CS(=O)(=O)c1nnc([C@H](Cc2ccccc2)NC(=O)OC(C)(C)C)o1 | inconclusive: -75.6%
56 | CCCCc1cc(=O)oc2cc(C)c(CN3CCCC3)c(O)c12 | inactive: 3.71%
57 | CC1CC(C)CN(S(=O)(=O)c2cccc(C(=O)OCCN3CCCC3=O)c2)C1 (stereo not given) | inconclusive: -32.7%
58 | Cc1ccc(OCC(=O)OC2CCS(=O)(=O)C2)cc1 (stereo not given) | inconclusive: -43.4%
59 | CCOC(=O)c1c(-c2ccc(C)o2)csc1NC(=O)CSc1nnc(C)s1 | inconclusive: -32.8%
60 | CCC(CC)C(=O)N1c2ccc(F)cc2CCC1C (stereo not given) | inactive: 16.3%
61 | CCCCCCCCCCS(=O)(=O)N/N=C/c1ccc(O)cc1 | inactive: -3.21%
62 | Cc1ccc(C(=O)NC(NCc2ccco2)C(Cl)(Cl)Cl)cc1 (stereo not given) | inconclusive: -63.2%
63 | Cc1ccc(N(CC(=O)NC2CC3CCC2C3)S(C)(=O)=O)cc1C (stereo not given) | inconclusive: -31.8%
64 | O=C(O)c1ccc(-n2c(-c3ccc(Br)cc3)n[nH]c2=S)cc1 | inconclusive: -44%
65 | COc1ccc2[nH]c(=O)c(CNc3ccc(C)c(C)c3)cc2c1 | inconclusive: -32.6%
66 | COC(=O)c1cc2ccccc2c(-c2c(O)ccc3ccccc23)c1O | inconclusive: -46.5%
67 | CCOC(=O)C(Cc1ccccc1)C(=O)Nc1nccs1 (stereo not given) | inconclusive: -66.2%
68 | CC(=O)c1ccc(OCC(=O)c2ccc(-c3ccccc3)cc2)cc1 | active: -87.4%
69 | COc1ccc2cc(C(=O)NCc3ccco3)c(=O)oc2c1 | inconclusive: -56.6%

Row | Compound | activity change (PNC), negative = inhibition
70 | C=CCNC(=O)/C(C#N)=C/c1c(N2CC(C)OC(C)C2)nc2ccccn2c1=O (stereo not given) | inconclusive: -54.4%
71 | CCN(CC)c1ccc(N=Cc2ccc([N+](=O)[O-])o2)cc1 | inconclusive: -50.3%
72 | Cc1ccc2cc(CN(Cc3nnnn3C3CCCC3)C3CCCCC3)c(=O)[nH]c2c1C | inactive: -14.1%
73 | CCOc1cc(/C=C2/C(=N)N3OC(C)=CC3=NC2=O)ccc1OCCOc1ccccc1 | inactive: -21.3%
74 | C/C(=N\NC(=O)c1c(Cl)c(C)nn1C)c1cccc(NC(=O)COc2ccccc2)c1 | inconclusive: -31.2%
75 | CC(C)NC(=O)c1nn(C)c2ccccc12 | inconclusive: -35.7%
76 | CCCCCCOC(=O)C1=C(C)NC(=O)NC1c1ccc(O)cc1 (stereo not given) | inconclusive: -40.3%
77 | CCn1c(-c2ccccc2)csc1=Nc1ccc(S(=O)(=O)O)cc1 | inactive: 11.1%
78 | COc1ccc(S(=O)(=O)N(C)c2ccc(C(=O)NCC3CCCO3)cc2)cc1 (stereo not given) | inconclusive: -40.8%
79 | CCOC(=O)N1CCN(C(=O)c2cccc(NC(=O)c3ccco3)c2)CC1 | inactive: -0.315%
80 | COCCNC(=O)c1sc2nc(-c3ccccc3)cn2c1C | inconclusive: -55.4%
81 | CCOC(=O)c1cc2c(C)n(-c3ccc(OCC)cc3)c(C)c2ccc1=O | inconclusive: -37%
82 | COCCNC(=O)[C@@]1(Cc2ccccc2)C=C[C@@H](C)N1C(C)=O | inconclusive: -38%
83 | CCc1ccc(/C=C2\SC(=S)N(CCCC(=O)Nc3nccs3)C2=O)cc1 | inconclusive: -75.1%
84 | Cc1nc2ccccc2n1CC(=O)NCc1ccccc1 | active: -103%
85 | O=C(CCN1C(=O)C2C3C=CC(C3)C2C1=O)N1CC(=O)N(CCc2ccccc2)C(=O)C1 (stereo not given) | inactive: 15.4%
86 | CC(C)=CC(=O)Nc1ccc(Br)cc1 | inactive: 16.1%
87 | COc1ccc(S(N)(=O)=O)cc1C(=O)NCC1(N2CCCCC2)CCCCC1 | inactive: 27.3%
88 | O=C(CNS(=O)(=O)c1ccccc1)OCC(=O)c1cccc([N+](=O)[O-])c1 | inconclusive: -32.9%
89 | CCC(C)NC(=O)c1c(F)c(F)c(F)c(F)c1F (stereo not given) | inactive: 33.8%
90 | CCCCNC(=S)N(Cc1ccco1)Cc1cc2cc3c(cc2[nH]c1=O)OCCO3 | inconclusive: -54.1%

Part of the list above, with tabs:
Row	Compound	activity change (PNC), negative = inhibition
83	CCc1ccc(/C=C2\SC(=S)N(CCCC(=O)Nc3nccs3)C2=O)cc1	inconclusive: -75.1%
84	Cc1nc2ccccc2n1CC(=O)NCc1ccccc1	active: -103%

Source: PubChem BioAssay AID2417 (National Center for Advancing Translational Sciences (NCATS), 2010)
